Measurements: article PMC1828611
Results are given in words; binding and its absence hold for the method and conditions named. In cells and extracts the contact can be indirect. Some entries that bind do so weakly or less than the wild type. For part of these data: Where a sequence is shown, tags or fusion partners need not be part of it. Values belong to the binder of their own block, whether it stands above or below them.

Assays:
[1] = target: T1, Hpo-Myc (Drosophila melanogaster) (UniProt Q8T0S6); experiment: co-IP; Hpo-Myc, Sav-HA and GFP-dRASSF cotransfected in Kc cells; anti-Myc, anti-HA, anti-dRASSF or control (anti-Flag) immunoprecipitates blotted for GFP-dRASSF, Sav-HA, Hpo-Myc and phospho-MST1
T1 sequence: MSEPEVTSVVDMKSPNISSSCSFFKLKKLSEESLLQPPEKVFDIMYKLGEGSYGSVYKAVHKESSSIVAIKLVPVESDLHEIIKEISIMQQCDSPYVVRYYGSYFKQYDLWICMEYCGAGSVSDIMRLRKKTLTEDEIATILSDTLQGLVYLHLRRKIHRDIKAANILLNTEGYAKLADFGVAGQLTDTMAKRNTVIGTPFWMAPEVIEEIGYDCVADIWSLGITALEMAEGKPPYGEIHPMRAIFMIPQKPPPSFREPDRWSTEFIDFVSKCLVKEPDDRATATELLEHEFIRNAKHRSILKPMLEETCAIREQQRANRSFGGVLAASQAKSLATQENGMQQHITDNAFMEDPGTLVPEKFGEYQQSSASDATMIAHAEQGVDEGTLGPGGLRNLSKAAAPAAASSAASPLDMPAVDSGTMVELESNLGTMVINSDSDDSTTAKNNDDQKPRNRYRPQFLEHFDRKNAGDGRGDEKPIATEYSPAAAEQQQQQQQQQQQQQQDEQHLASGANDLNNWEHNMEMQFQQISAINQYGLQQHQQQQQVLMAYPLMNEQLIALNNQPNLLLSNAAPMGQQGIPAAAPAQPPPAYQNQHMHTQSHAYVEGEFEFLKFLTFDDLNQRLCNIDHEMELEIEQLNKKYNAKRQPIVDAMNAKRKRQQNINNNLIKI

[2] = target: T2, Sav-HA (Drosophila melanogaster) (UniProt Q9VCR6); experiment: as above
T2 sequence: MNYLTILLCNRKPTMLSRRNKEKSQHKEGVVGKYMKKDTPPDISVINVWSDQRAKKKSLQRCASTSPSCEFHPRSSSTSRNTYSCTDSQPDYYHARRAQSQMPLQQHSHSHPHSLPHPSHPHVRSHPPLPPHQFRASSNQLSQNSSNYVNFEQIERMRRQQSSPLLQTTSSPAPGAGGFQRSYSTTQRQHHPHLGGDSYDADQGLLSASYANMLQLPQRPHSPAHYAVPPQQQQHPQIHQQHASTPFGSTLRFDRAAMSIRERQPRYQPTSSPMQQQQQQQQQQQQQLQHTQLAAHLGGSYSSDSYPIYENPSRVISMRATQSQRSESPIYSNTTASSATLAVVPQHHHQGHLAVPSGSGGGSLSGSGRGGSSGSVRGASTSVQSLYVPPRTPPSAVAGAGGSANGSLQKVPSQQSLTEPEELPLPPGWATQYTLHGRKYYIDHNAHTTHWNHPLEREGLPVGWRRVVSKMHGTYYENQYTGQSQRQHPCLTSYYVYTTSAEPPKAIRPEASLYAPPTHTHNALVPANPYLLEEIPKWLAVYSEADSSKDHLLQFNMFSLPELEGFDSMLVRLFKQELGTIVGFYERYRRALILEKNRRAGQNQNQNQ

[3] = target: T3, Salvador (Sav), endogenous (Drosophila melanogaster (endogenous in Kc cells)) (UniProt Q9VCR6); experiment: co-IP; endogenous proteins immunoprecipitated from Kc cell lysates with dRASSF antibodies (or Sav antibodies, Figure S2C); control Myc antibodies; blotted with Hpo66 and dRASSF antibodies
T3 sequence: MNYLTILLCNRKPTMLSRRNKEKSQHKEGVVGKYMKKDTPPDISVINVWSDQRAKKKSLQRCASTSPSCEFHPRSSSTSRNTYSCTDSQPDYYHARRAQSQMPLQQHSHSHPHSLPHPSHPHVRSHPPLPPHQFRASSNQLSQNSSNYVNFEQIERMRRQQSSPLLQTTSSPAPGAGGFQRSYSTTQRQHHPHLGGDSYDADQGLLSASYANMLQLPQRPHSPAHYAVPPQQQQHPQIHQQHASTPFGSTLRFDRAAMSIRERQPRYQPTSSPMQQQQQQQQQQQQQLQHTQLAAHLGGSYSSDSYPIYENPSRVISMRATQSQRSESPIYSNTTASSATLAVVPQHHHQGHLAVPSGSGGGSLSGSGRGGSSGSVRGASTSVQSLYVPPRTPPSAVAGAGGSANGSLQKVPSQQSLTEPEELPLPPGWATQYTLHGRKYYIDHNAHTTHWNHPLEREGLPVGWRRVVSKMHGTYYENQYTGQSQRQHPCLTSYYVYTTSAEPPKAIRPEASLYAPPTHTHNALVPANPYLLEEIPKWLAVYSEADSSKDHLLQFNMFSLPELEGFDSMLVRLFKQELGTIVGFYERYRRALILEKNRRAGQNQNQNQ

binding [1]: binds
B1: Sav-HA (protein, UniProt Q9VCR6 1-608)
chain: MNYLTILLCNRKPTMLSRRNKEKSQHKEGVVGKYMKKDTPPDISVINVWSDQRAKKKSLQRCASTSPSCEFHPRSSSTSRNTYSCTDSQPDYYHARRAQSQMPLQQHSHSHPHSLPHPSHPHVRSHPPLPPHQFRASSNQLSQNSSNYVNFEQIERMRRQQSSPLLQTTSSPAPGAGGFQRSYSTTQRQHHPHLGGDSYDADQGLLSASYANMLQLPQRPHSPAHYAVPPQQQQHPQIHQQHASTPFGSTLRFDRAAMSIRERQPRYQPTSSPMQQQQQQQQQQQQQLQHTQLAAHLGGSYSSDSYPIYENPSRVISMRATQSQRSESPIYSNTTASSATLAVVPQHHHQGHLAVPSGSGGGSLSGSGRGGSSGSVRGASTSVQSLYVPPRTPPSAVAGAGGSANGSLQKVPSQQSLTEPEELPLPPGWATQYTLHGRKYYIDHNAHTTHWNHPLEREGLPVGWRRVVSKMHGTYYENQYTGQSQRQHPCLTSYYVYTTSAEPPKAIRPEASLYAPPTHTHNALVPANPYLLEEIPKWLAVYSEADSSKDHLLQFNMFSLPELEGFDSMLVRLFKQELGTIVGFYERYRRALILEKNRRAGQNQNQNQ

binding [2]: binds
B2: Hpo-Myc (protein, UniProt Q8T0S6 1-669)
chain: MSEPEVTSVVDMKSPNISSSCSFFKLKKLSEESLLQPPEKVFDIMYKLGEGSYGSVYKAVHKESSSIVAIKLVPVESDLHEIIKEISIMQQCDSPYVVRYYGSYFKQYDLWICMEYCGAGSVSDIMRLRKKTLTEDEIATILSDTLQGLVYLHLRRKIHRDIKAANILLNTEGYAKLADFGVAGQLTDTMAKRNTVIGTPFWMAPEVIEEIGYDCVADIWSLGITALEMAEGKPPYGEIHPMRAIFMIPQKPPPSFREPDRWSTEFIDFVSKCLVKEPDDRATATELLEHEFIRNAKHRSILKPMLEETCAIREQQRANRSFGGVLAASQAKSLATQENGMQQHITDNAFMEDPGTLVPEKFGEYQQSSASDATMIAHAEQGVDEGTLGPGGLRNLSKAAAPAAASSAASPLDMPAVDSGTMVELESNLGTMVINSDSDDSTTAKNNDDQKPRNRYRPQFLEHFDRKNAGDGRGDEKPIATEYSPAAAEQQQQQQQQQQQQQQDEQHLASGANDLNNWEHNMEMQFQQISAINQYGLQQHQQQQQVLMAYPLMNEQLIALNNQPNLLLSNAAPMGQQGIPAAAPAQPPPAYQNQHMHTQSHAYVEGEFEFLKFLTFDDLNQRLCNIDHEMELEIEQLNKKYNAKRQPIVDAMNAKRKRQQNINNNLIKI

binding [3]: binds
B3: Hippo (Hpo), endogenous (protein, UniProt Q8T0S6 1-669)
chain: MSEPEVTSVVDMKSPNISSSCSFFKLKKLSEESLLQPPEKVFDIMYKLGEGSYGSVYKAVHKESSSIVAIKLVPVESDLHEIIKEISIMQQCDSPYVVRYYGSYFKQYDLWICMEYCGAGSVSDIMRLRKKTLTEDEIATILSDTLQGLVYLHLRRKIHRDIKAANILLNTEGYAKLADFGVAGQLTDTMAKRNTVIGTPFWMAPEVIEEIGYDCVADIWSLGITALEMAEGKPPYGEIHPMRAIFMIPQKPPPSFREPDRWSTEFIDFVSKCLVKEPDDRATATELLEHEFIRNAKHRSILKPMLEETCAIREQQRANRSFGGVLAASQAKSLATQENGMQQHITDNAFMEDPGTLVPEKFGEYQQSSASDATMIAHAEQGVDEGTLGPGGLRNLSKAAAPAAASSAASPLDMPAVDSGTMVELESNLGTMVINSDSDDSTTAKNNDDQKPRNRYRPQFLEHFDRKNAGDGRGDEKPIATEYSPAAAEQQQQQQQQQQQQQQDEQHLASGANDLNNWEHNMEMQFQQISAINQYGLQQHQQQQQVLMAYPLMNEQLIALNNQPNLLLSNAAPMGQQGIPAAAPAQPPPAYQNQHMHTQSHAYVEGEFEFLKFLTFDDLNQRLCNIDHEMELEIEQLNKKYNAKRQPIVDAMNAKRKRQQNINNNLIKI
